In article PMC7413538:
No constants are given. Whether binding was seen depends on the method and setting. Some binding calls cover weakened binding; strength is not graded here. Where a sequence is shown, tags or fusion partners need not be part of it.

Sequences of proteins named here, by UniProt entry; tags and fusion partners are left off. A change or cut given only in a name is not applied to a line headed by its entry.
UniProt Q00651: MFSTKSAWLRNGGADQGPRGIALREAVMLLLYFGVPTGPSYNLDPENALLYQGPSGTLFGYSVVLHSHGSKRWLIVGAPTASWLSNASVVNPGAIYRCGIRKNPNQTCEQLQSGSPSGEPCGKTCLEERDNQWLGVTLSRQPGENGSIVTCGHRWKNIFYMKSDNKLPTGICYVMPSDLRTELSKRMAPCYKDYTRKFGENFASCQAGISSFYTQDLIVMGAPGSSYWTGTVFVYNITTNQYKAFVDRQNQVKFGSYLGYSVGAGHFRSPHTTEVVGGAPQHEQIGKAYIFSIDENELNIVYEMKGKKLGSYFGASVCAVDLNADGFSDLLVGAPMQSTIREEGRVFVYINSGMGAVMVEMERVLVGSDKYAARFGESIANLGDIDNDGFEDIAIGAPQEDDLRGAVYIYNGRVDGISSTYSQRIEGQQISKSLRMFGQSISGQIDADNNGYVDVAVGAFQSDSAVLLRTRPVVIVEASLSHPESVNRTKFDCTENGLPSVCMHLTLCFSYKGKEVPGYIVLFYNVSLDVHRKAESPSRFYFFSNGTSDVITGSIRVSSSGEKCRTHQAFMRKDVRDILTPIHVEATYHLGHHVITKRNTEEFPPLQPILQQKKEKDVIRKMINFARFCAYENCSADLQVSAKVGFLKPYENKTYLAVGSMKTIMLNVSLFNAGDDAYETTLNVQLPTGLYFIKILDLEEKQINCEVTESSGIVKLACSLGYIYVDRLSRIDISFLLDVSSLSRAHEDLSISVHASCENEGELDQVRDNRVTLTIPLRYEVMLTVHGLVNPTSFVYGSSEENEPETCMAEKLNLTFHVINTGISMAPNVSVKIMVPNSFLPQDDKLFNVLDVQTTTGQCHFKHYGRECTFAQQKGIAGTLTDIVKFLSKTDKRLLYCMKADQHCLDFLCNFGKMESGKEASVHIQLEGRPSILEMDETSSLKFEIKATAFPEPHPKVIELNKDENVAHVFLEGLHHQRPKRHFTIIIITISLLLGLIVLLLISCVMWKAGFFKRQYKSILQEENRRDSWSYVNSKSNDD
UniProt P26011: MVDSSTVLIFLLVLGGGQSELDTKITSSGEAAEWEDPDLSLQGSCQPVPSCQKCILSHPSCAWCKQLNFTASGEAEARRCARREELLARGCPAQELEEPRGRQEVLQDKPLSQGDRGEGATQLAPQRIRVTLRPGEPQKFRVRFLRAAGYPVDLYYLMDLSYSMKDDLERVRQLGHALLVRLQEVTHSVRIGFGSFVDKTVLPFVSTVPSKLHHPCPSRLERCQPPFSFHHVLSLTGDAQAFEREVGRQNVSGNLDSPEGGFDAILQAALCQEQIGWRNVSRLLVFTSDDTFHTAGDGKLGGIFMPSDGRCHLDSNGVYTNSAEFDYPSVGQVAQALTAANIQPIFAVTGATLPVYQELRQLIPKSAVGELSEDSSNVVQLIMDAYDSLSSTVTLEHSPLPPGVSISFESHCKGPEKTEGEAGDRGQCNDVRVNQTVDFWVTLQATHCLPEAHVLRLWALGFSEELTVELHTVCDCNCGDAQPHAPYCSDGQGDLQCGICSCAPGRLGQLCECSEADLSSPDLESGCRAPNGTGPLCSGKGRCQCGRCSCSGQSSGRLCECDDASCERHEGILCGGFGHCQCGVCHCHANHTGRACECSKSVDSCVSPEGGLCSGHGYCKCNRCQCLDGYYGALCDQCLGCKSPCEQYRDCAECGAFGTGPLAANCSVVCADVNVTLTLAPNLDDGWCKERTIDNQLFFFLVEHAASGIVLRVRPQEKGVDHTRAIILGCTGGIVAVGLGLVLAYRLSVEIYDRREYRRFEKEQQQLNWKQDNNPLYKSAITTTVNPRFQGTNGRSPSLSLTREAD

Key:
[1] = biological target: T1, α4β7 integrin on wild-type BAF (Ba/F3) cells (mouse (endogenous in Ba/F3)) (UniProt Q00651+P26011); test: flow cytometry on cells; wt BAF cells (2 x 10^5 in 50 μl) incubated with mouse MAdCAM-1-Fc (30 μg/ml) in HBSS, 0.1% BSA, 0.5 mM MnCl2; detected with APC anti-human IgG Fc; fluorescence normalised to anti-β7 (FIB504); only the binder purified
[2] = biological target: T1, α4β7 integrin on wild-type BAF (Ba/F3) cells (mouse (endogenous in Ba/F3)); test: flow cytometry on cells; wt BAF cells (2 x 10^5 in 50 μl) incubated with mouse MAdCAM-1-Fc (30 μg/ml) in HBSS, 0.1% BSA, 1 mM CaCl2, 1 mM MgCl2; detected with APC anti-human IgG Fc; fluorescence normalised to anti-β7 (FIB504); only the binder purified
[3] = biological target: α4β7 integrin with PA-tag insertion mutant PAins 2 of the β7 chain, on β7-knockout BAF cells (mouse (endogenous in Ba/F3) | murine) (UniProt Q00651+P26011); test: flow cytometry on cells; PAins2 BAF cells (control, Rap1V12, Spa-1-expressing, Rap1a/b knock-down) incubated with soluble MAdCAM-1-Fc in the presence or absence of CXCL12; fluorescence normalised to anti-β7 (FIB504); only the binder purified

B1: mouse MAdCAM-1-Fc (Fc fusion, UniProt Q61826 22-364)
chain: QSFQVNPPESEVAVAMGTSLQITCSMSCDEGVARVHWRGLDTSLGSVQTLPGSSILSVRGMLSDTGTPVCVGSCGSRSFQHSVKILVYAFPDQLVVSPEFLVPGQDQVVSCTAHNIWPADPNSLSFALLLGEQRLEGAQALEPEQEEEIQEAEGTPLFRMTQRWRLPSLGTPAPPALHCQVTMQLPKLVLTHRKEIPVLQSQTSPKPPNTTSAEPYILTSSSTAEAVSTGLNITTLPSAPPYPKLSPRTLSSEGPCRPKIHQDLEAGWELLCEASCGPGVTVRWTLAPGDLATYHKREAGAQAWLSVLPPGPMVEGWFQCRQDPGGEVTNLYVPGQVTPNSSS
- binding [1]: binds
- binding [2]: binds weakly
- binding [3]: binds
